Reference: publication PMC5805366
These are yes or no findings as the source states them, for the method shown. In cells and extracts the contact can be indirect. Some entries that bind do so weakly or less than the wild type.

Assays:
Settings in all cases: remark: other sources report otherwise
[1] = target: T1, endogenous human Nmi (human (endogenous in U251 and human foreskin fibroblasts)), Q13287; assay: co-IP; IFN-γ-treated human foreskin fibroblasts infected with ΔUL23 or UL23stop
T1 chain: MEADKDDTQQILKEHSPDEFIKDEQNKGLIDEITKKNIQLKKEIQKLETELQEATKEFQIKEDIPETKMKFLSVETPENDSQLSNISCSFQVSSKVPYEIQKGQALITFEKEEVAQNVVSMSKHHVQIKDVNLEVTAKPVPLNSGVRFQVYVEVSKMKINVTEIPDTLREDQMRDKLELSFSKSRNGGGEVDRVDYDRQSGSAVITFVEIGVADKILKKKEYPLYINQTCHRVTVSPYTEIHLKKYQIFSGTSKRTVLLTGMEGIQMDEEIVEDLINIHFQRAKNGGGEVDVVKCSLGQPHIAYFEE

[2] = target: T1, endogenous human Nmi (human (endogenous …)); assay: co-IP; U251 and U251-C cells (also cells with the empty vector pCMV-FLAG), no UL23, treated with IFN-γ (1000 U/ml) for 12 h; IP with anti-UL23, anti-Nmi or anti-STAT1
[3] = target: T1, endogenous human Nmi (human (endogenous …)); assay: co-IP; IFN-γ-treated U251 cells infected with the UL23-deficient mutants ΔUL23 or UL23stop (MOI = 1), lysates at 24-48 h postinfection; IP with anti-UL23, anti-Nmi or anti-STAT1

Measured: binding

B1: endogenous human STAT1, P42224 1-750 (protein)
chain: MSQWYELQQLDSKFLEQVHQLYDDSFPMEIRQYLAQWLEKQDWEHAANDVSFATIRFHDLLSQLDDQYSRFSLENNFLLQHNIRKSKRNLQDNFQEDPIQMSMIIYSCLKEERKILENAQRFNQAQSGNIQSTVMLDKQKELDSKVRNVKDKVMCIEHEIKSLEDLQDEYDFKCKTLQNREHETNGVAKSDQKQEQLLLKKMYLMLDNKRKEVVHKIIELLNVTELTQNALINDELVEWKRRQQSACIGGPPNACLDQLQNWFTIVAESLQQVRQQLKKLEELEQKYTYEHDPITKNKQVLWDRTFSLFQQLIQSSFVVERQPCMPTHPQRPLVLKTGVQFTVKLRLLVKLQELNYNLKVKVLFDKDVNERNTVKGFRKFNILGTHTKVMNMEESTNGSLAAEFRHLQLKEQKNAGTRTNEGPLIVTEELHSLSFETQLCQPGLVIDLETTSLPVVVISNVSQLPSGWASILWYNMLVAEPRNLSFFLTPPCARWAQLSEVLSWQFSSVTKRGLNVDQLNMLGEKLLGPNASPDGLIPWTRFCKENINDKNFPFWLWIESILELIKKHLLPLWNDGCIMGFISKERERALLKDQQPGTFLLRFSESSREGAITFTWVERSQNGGEPDFHAVEPYTKKELSAVTFPDIIRNYKVMAAENIPENPLKYLYPNIDKDHAFGKYYSRPKEAPEPMELDGPKGTGYIKTELISVSEVHPSRLQTTDNLLPMSPEEFDEVSRIVGSVEFDSMMNTV
binds: [1] | [2] | [3]
